Measured values taken from PubChem BioAssay AID200 (DTP/NCI, 2004).
The list shows only some results of the screen, not a fair sample: it is rich in T/C values a quarter to a half above the control, in often repeated tests (any T/C) and in doses without a T/C. Other doses and runs of a compound stand elsewhere. T/C gives the treated animals as a percentage of the vehicle group. Some entries give survivors of the animals treated and no T/C: the source files T/C as zero there, which appears to mark a toxic dose or a test without result, not a measured value. Some survivor counts are full or nearly so, which does not show that the dose was tolerated: survival well below the control is almost never listed, so the zero probably covers shortened survival too. Counts of survivors are from the toxicity check (mostly the fifth day) where no day follows; animals may have died later. Schedule codes are those of the source, taken here to give the interval after Q, in days (D) or hours (H), and the number of doses after X. Some entries were tested several times; their values stand side by side, smallest first. Where survival is the endpoint, this PubChem deposit counts one and a half times the control or more as active, and values a quarter to a half above the control carry no call in these data; other NCI protocols may use other cut-offs. Some T/C values carry the count of animals alive at the toxicity check (mostly the fifth day); without a count, all were alive then.

System: B6C3F1 mice, B16 melanoma ip, median survival T/C
Experiment: NCI In Vivo Anticancer Drug Screen. Data for tumor model B16 Melanoma (intraperitoneal) in B6C3F1 mice
Conditions: T/C endpoint: median survival time, higher T/C = longer survival
How it was run: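 Antitumor effect was judged in mice with transplanted tumors by dividing the treated group's survival measure by that of vehicle controls.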

[1] = dose: 100.0 mg/kg/injection, schedule: Q01DX009 (ip), vehicle: saline + alcohol
[2] = dose: 50.0 mg/kg/injection, schedule: Q01DX009 (ip), vehicle: Klucel (hydroxypropylcellulose) (HPC)
[3] = dose: 100.0 mg/kg/injection, schedule: Q01DX009 (ip), vehicle: Klucel (hydroxypropylcellulose) (HPC)
[4] = dose: 25.0 mg/kg/injection, schedule: Q01DX001 (ip), vehicle: water

SMILES: C[C@@]1(CO)[C@H](O)CC[C@@]2(C)[C@H]1CC[C@H]1C[C@@H]3C[C@@]12CC[C@@]3(O)COC(=O)CN
- T/C (dose: 7.5 mg/kg/injection, schedule: Q01DX009 (ip), vehicle: saline + alcohol): 129 % of control
- T/C (dose: 10.0 mg/kg/injection, schedule: Q03HX027 (ip), vehicle: saline + alcohol): 140 % of control
- T/C (dose: 10.0 mg/kg/injection, schedule: Q03HX027 (sc), vehicle: saline + alcohol): 126 % of control
- T/C (dose: 11.25 mg/kg/injection, schedule: Q03HX024 (ip), vehicle: saline + alcohol): 131 % of control
- T/C (dose: 13.5 mg/kg/injection, schedule: Q01DX005 (iv), vehicle: saline + alcohol): 126 % of control
- T/C (dose: 15.0 mg/kg/injection, schedule: Q01DX009 (ip), vehicle: saline + alcohol): 132 % of control
- T/C (dose: 20.0 mg/kg/injection, schedule: Q03HX027 (ip), vehicle: saline + alcohol): 130 and 147 % of control [9 of 10 alive]
- T/C (dose: 22.5 mg/kg/injection, schedule: Q03HX024 (ip), vehicle: saline + alcohol): 136 % of control
- T/C (dose: 25.0 mg/kg/injection, schedule: Q01DX009 (ip), vehicle: saline + alcohol): 127 % of control
- T/C (dose: 30.0 mg/kg/injection, schedule: Q01DX009 (ip), vehicle: saline + alcohol): 133 % of control
- T/C (dose: 40.0 mg/kg/injection, schedule: Q03HX027 (ip), vehicle: saline + alcohol): 147 % of control [9 of 10 alive]
- survivor count (dose: 45.0 mg/kg/injection, schedule: Q03HX024 (ip), vehicle: saline + alcohol): 9 of 9
- T/C (dose: 50.0 mg/kg/injection, schedule: Q01DX009 (ip), vehicle: saline + alcohol): 133 and 134 % of control
- T/C (dose: 60.0 mg/kg/injection, schedule: Q01DX009 (ip), vehicle: saline + alcohol): 130 [9 of 10 alive] and 138 % of control
- survivor count (dose: 67.5 mg/kg/injection, schedule: Q03HX008 (ip), vehicle: saline + alcohol): 3 of 10
- T/C (dose: 75.0 mg/kg/injection, schedule: Q01DX009 (ip), vehicle: saline + alcohol): 136 % of control
- survivor count (dose: 80.0 mg/kg/injection, schedule: Q03HX027 (ip), vehicle: saline + alcohol): 0 of 10, 3 of 10, 10 of 10
- survivor count (dose: 90.0 mg/kg/injection, schedule: Q03HX024 (ip), vehicle: saline + alcohol): 0 of 10
- T/C [1]: 128 % of control [9 of 10 alive]
- survivor count [1]: 10 of 10
- survivor count (dose: 108.0 mg/kg/injection, schedule: Q01DX005 (ip), vehicle: saline + alcohol): 6 of 10
- T/C (dose: 113.0 mg/kg/injection, schedule: Q01DX009 (ip), vehicle: saline + alcohol): 132 % of control
- survivor count (dose: 120.0 mg/kg/injection, schedule: Q01DX009 (ip), vehicle: saline + alcohol): 1 of 8 and 3 of 10
- T/C (dose: 120.0 mg/kg/injection, schedule: Q01DX009 (oral), vehicle: saline + alcohol): 128 % of control [7 of 8 alive]
- survivor count (dose: 135.0 mg/kg/injection, schedule: Q01DX001 (ip), vehicle: saline + alcohol): 4 of 10
- survivor count (dose: 135.0 mg/kg/injection, schedule: Q03HX008 (ip), vehicle: saline + alcohol): 0 of 10
- survivor count (dose: 150.0 mg/kg/injection, schedule: Q01DX009 (ip), vehicle: saline + alcohol): 1 of 10
- survivor count (dose: 180.0 mg/kg/injection, schedule: Q04DX003 (ip), vehicle: saline + alcohol): 1 of 10
- survivor count (dose: 200.0 mg/kg/injection, schedule: Q01DX009 (ip), vehicle: saline + alcohol): 0 of 10
- survivor count (dose: 216.0 mg/kg/injection, schedule: Q01DX005 (ip), vehicle: saline + alcohol): 0 of 10
- survivor count (dose: 240.0 mg/kg/injection, schedule: Q01DX009 (ip), vehicle: saline + alcohol): 0 of 10
- survivor count (dose: 270.0 mg/kg/injection, schedule: Q01DX001 (ip), vehicle: saline + alcohol): 0 of 10
- survivor count (dose: 360.0 mg/kg/injection, schedule: Q04DX003 (ip), vehicle: saline + alcohol): 0 of 10
- survivor count (dose: 400.0 mg/kg/injection, schedule: Q01DX009 (ip), vehicle: saline + alcohol): 0 of 10
- survivor count (dose: 480.0 mg/kg/injection, schedule: Q01DX009 (oral), vehicle: saline + alcohol): 7 of 8
- survivor count (dose: 540.0 mg/kg/injection, schedule: Q01DX001 (ip), vehicle: saline + alcohol): 0 of 10
- survivor count (dose: 720.0 mg/kg/injection, schedule: Q04DX003 (ip), vehicle: saline + alcohol): 0 of 10

SMILES: C=C1C(O)C2(O)OCC34C(CC5C(C)=CC(=O)C(O)C5(C)C23)OC(=O)C(OC(=O)C/C=C/CCCCCCCC)C14 (centres undefined)
- survivor count (dose: 26.67 mg/kg/injection, schedule: Q01DX009 (ip), vehicle: saline + Tween-80 + alcohol): 5 of 10
- survivor count (dose: 32.0 mg/kg/injection, schedule: Q01DX009 (ip), vehicle: saline + alcohol): 4 of 10
- survivor count (dose: 44.44 mg/kg/injection, schedule: Q01DX009 (ip), vehicle: saline + Tween-80 + alcohol): 0 of 10
- survivor count (dose: 64.0 mg/kg/injection, schedule: Q01DX009 (ip), vehicle: saline + alcohol): 0 of 10

SMILES: C[C@]12CC[C@H](O)CC1=CC[C@@H]1[C@@H]2CC[C@]2(C)C(=O)CC[C@@H]12
- survivor count (dose: 400.0 mg/kg/injection, schedule: Q01DX009 (ip), vehicle: saline with Tween-80): 9 of 10

SMILES: O=S1(=O)CS(=O)(=O)OCCO1
- T/C (dose: 6.25 mg/kg/injection, schedule: Q01DX009 (ip), vehicle: Klucel (hydroxypropylcellulose) (HPC)): 148 % of control
- survivor count [2]: 6 of 8
- survivor count [3]: 3 of 10

SMILES: COc1cccc2c1C(=O)c1c(O)c3c(c(O)c1C2=O)C[C@](O)(C(=O)CO)CC3OC1CC(N)C(OC2CCCCO2)C(C)O1 (some centres undefined)
- T/C (dose: 1.56 mg/kg/injection, schedule: Q01DX001 (ip), vehicle: water): 129 % of control
- survivor count (dose: 3.0 mg/kg/injection, schedule: Q01DX009 (ip), vehicle: water): 10 of 10
- survivor count (dose: 6.0 mg/kg/injection, schedule: Q01DX009 (ip), vehicle: water): 9 of 10
- survivor count (dose: 6.25 mg/kg/injection, schedule: Q01DX009 (ip), vehicle: water): 9 of 10
- survivor count (dose: 12.0 mg/kg/injection, schedule: Q01DX009 (ip), vehicle: water): 4 of 10
- survivor count (dose: 12.5 mg/kg/injection, schedule: Q01DX009 (ip), vehicle: water): 6 of 10
- survivor count (dose: 24.0 mg/kg/injection, schedule: Q01DX009 (ip), vehicle: water): 0 of 9
- T/C [4]: 148 % of control
- survivor count [4]: 10 of 10
- survivor count (dose: 25.0 mg/kg/injection, schedule: Q01DX009 (ip), vehicle: water): 2 of 10
- survivor count (dose: 50.0 mg/kg/injection, schedule: Q01DX001 (ip), vehicle: water): 0 of 10
- survivor count (dose: 50.0 mg/kg/injection, schedule: Q01DX009 (ip), vehicle: water): 0 of 10
- survivor count (dose: 100.0 mg/kg/injection, schedule: Q01DX009 (ip), vehicle: water): 0 of 10

SMILES: CO[C@H]1C[C@@H]2CC[C@@H](C)[C@@](O)(O2)C(=O)C(=O)N2CCCC[C@H]2C(=O)O[C@H]([C@H](C)C[C@@H]2CC[C@@H](O)[C@H](OC)C2)CC(=O)[C@H](C)C=C(C)[C@@H](O)[C@@H](OC)C(=O)[C@H](C)C[C@H](C)/C=C/C=C/C=C1C
- T/C (dose: 190.0 mg/kg/injection, schedule: Q01DX001 (ip), vehicle: saline with Tween-80): 141 % of control
- T/C (dose: 380.0 mg/kg/injection, schedule: Q01DX001 (ip), vehicle: saline with Tween-80): 125 % of control
- T/C (dose: 760.0 mg/kg/injection, schedule: Q01DX001 (ip), vehicle: saline with Tween-80): 125 % of control

SMILES: C[C@@H]1C[C@H]2[C@@H]3CCC4=CC(=O)C=C[C@]4(C)[C@@]3(F)[C@@H](O)C[C@]2(C)[C@@]1(O)C(=O)CO
- survivor count (dose: 25.0 mg/kg/injection, schedule: Q01DX009 (ip), vehicle: Klucel (hydroxypropylcellulose) (HPC)): 10 of 10
- survivor count [2]: 10 of 10
- survivor count [3]: 10 of 10
